No constants are given. Whether binding was seen depends on the method and setting. Some binding calls cover weakened binding; strength is not graded here.
Legend:
Teneurin-1 = Teneurin-1 (UniProt Q9WTS4); test: membrane-recruitment assay (imaging of transfected cells); transfected HEK293/HEK293T cells co-expressing Flag-tagged RIM1 or RIM-BP2 constructs with HA-tagged teneurins; Flag and HA epitopes imaged
HA-tagged Tenm3^WT = HA-tagged Tenm3^WT (UniProt Q9WTS6); test: as above
Teneurin-4 = Teneurin-4 (UniProt Q3UHK6); test: as above
Teneurin-2 = Teneurin-2 (UniProt Q9WTS5); test: as above
[1] = target: RIM1 and RIM-BP2 active zone LLPS condensates (UniProt Q9JIR4); test: imaging of recruitment into LLPS condensates; purified proteins; RIM1 and RIM-BP2 10 μM each (Fig. 2) or 20 μM each (Fig. 3), Tenm3 proteins 1 μM; iFluor-labelled proteins imaged; both purified

Chains of the proteins cited; added tags and fusions are not shown.
UniProt Q9WTS4: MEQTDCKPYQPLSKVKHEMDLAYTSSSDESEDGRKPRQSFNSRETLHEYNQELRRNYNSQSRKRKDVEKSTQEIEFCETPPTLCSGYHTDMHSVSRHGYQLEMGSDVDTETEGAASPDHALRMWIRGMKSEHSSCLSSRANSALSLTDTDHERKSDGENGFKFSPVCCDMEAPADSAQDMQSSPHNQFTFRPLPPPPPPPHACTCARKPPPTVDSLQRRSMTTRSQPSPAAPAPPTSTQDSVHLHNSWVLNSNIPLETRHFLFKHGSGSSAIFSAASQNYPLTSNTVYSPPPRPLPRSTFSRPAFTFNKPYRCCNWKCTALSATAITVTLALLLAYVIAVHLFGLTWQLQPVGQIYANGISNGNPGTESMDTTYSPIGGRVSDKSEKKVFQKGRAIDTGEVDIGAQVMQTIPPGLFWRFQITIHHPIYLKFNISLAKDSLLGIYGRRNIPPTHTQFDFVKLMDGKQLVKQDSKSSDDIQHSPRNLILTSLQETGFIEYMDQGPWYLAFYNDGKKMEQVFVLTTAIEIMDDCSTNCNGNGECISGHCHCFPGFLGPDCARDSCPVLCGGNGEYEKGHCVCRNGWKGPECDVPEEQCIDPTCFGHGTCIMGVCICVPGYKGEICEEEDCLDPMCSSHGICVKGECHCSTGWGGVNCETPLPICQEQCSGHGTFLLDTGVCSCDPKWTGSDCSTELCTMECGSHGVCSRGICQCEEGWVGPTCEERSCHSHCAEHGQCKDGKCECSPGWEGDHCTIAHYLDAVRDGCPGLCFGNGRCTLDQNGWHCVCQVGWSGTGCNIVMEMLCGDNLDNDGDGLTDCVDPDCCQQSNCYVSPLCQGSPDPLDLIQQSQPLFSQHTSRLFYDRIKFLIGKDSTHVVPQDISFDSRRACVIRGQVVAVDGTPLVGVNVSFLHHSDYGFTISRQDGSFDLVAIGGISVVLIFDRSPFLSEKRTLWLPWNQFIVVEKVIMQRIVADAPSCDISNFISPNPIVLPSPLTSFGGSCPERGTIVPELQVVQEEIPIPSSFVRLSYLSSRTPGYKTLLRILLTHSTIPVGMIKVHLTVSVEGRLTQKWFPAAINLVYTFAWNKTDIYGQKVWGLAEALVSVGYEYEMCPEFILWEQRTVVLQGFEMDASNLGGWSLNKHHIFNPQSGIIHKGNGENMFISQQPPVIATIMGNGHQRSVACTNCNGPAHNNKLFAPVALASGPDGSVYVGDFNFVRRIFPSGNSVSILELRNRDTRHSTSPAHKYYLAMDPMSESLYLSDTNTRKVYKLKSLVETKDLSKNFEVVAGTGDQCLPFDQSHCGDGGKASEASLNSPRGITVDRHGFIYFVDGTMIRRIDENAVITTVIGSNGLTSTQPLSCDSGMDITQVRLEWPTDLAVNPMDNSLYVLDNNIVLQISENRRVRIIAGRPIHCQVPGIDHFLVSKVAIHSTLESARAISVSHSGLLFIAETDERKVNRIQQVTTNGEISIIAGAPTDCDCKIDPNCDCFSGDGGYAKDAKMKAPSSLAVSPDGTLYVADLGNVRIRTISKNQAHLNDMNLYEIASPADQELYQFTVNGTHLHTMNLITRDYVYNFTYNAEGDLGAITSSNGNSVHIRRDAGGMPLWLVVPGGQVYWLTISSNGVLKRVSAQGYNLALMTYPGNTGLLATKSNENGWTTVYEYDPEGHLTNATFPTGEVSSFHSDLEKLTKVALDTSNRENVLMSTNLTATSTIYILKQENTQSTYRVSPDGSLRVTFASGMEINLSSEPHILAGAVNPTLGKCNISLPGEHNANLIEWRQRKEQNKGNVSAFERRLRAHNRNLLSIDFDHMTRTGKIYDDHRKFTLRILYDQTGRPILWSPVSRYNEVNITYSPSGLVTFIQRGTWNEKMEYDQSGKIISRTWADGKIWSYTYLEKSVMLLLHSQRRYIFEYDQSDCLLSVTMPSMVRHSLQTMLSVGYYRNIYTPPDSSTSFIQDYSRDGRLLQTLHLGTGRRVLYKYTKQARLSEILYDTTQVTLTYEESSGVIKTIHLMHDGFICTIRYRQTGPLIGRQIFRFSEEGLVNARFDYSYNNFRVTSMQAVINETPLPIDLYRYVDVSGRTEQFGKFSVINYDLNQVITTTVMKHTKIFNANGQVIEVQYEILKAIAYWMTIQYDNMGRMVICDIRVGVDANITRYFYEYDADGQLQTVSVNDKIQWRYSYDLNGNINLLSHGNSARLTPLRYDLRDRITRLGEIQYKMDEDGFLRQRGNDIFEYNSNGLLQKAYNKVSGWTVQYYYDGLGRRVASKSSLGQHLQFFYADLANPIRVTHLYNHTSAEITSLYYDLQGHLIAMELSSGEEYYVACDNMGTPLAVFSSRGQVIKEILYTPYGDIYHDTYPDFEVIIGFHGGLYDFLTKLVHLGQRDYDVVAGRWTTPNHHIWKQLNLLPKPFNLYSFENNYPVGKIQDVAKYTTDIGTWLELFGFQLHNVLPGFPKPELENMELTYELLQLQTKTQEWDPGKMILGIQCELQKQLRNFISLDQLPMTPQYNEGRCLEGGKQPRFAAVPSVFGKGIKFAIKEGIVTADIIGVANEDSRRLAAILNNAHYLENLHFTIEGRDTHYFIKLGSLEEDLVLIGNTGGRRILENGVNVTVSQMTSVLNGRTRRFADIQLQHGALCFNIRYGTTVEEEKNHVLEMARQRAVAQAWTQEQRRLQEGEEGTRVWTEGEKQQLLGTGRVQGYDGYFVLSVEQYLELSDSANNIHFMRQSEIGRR
UniProt Q9JIR4: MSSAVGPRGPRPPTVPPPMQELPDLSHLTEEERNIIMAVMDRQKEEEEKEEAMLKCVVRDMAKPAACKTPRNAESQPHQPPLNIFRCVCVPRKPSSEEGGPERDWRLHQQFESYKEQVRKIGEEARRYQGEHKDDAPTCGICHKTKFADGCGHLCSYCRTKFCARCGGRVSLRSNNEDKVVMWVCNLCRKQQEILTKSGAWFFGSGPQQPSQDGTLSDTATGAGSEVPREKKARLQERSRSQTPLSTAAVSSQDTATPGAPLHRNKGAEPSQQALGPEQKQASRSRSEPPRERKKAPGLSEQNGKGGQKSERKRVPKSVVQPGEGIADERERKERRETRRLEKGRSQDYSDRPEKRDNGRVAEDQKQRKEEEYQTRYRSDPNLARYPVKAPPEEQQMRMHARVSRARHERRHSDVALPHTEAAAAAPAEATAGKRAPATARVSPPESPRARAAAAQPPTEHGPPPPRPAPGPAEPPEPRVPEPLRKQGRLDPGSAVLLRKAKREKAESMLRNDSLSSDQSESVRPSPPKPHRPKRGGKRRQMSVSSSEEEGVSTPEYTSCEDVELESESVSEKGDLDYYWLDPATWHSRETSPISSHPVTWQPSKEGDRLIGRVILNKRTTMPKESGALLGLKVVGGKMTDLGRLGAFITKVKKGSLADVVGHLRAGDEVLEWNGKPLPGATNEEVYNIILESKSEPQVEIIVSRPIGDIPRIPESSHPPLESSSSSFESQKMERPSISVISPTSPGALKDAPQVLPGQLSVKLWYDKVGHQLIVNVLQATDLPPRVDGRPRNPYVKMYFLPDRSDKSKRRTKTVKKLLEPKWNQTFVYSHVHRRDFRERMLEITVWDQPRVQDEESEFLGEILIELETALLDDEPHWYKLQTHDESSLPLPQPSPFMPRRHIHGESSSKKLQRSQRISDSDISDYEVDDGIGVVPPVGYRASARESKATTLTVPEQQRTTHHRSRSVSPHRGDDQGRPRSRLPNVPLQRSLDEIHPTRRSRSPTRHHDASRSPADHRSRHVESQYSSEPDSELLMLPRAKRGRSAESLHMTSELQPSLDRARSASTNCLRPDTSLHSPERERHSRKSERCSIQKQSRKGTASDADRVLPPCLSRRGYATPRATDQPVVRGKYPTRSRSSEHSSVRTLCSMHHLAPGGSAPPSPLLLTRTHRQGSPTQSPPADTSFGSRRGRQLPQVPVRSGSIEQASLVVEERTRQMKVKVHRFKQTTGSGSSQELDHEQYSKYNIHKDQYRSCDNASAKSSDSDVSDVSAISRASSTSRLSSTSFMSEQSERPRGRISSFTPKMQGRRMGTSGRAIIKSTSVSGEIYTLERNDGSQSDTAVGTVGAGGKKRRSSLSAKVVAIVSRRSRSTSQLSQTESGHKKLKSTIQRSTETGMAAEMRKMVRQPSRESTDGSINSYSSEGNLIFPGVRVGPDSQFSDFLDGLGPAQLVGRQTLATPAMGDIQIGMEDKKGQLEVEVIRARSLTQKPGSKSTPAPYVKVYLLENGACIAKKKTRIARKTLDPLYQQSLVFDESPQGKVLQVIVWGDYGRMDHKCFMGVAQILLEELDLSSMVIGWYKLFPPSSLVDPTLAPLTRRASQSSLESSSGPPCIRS

Flag-tagged RIM1 (from UniProt Q9JIR4 1-1615)
binding (Teneurin-1): binds
binding (HA-tagged Tenm3^WT): binds
binding (Teneurin-4): binds
binding (Teneurin-2): binds

Tenm3 extracellular domains (ECD), purified (from UniProt Q9WTS6 332-2715) (domain or fragment)
binding [1]: no binding (tested: 1 μM)

Source: publication PMC11808628
